According to PubChem BioAssay AID2320 (National Center for Advancing Translational Sciences (NCATS), 2010):
This is a selection; strong and weak results do not stand in their true shares. Inconclusive results are not listed. Where a call stands in place of a potency, no number is given. The source made the active and inactive calls. The call rests on the fitted dose curve.

Assay: A qHTS for Small Molecule Inhibitors of Shiga Toxin (Confirmatory); further: nearly all actives have a fitted effect of over 75% in size
Potency means the concentration at half of the fitted maximal effect.

| SMILES | Potency |
| --- | --- |
| O=C(NCc1ccncc1)C(=O)NCC1OCCN1S(=O)(=O)c1ccc(F)cc1 (configuration not stated) | inactive |
| Cc1ccc(-c2cc(C(=O)N3N=C(C(F)F)CC3(O)C(F)F)c3ccccc3n2)cc1C (configuration not stated) | active: 12.6 µM |
